Laboratory results from the supplement of paper PMC4604168 (melanoma cell lines).
The list shows a part of the results. Single values are uncertain, as repeats are few or missing.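 Cells were imaged in 1,536-well plates, and nuclei stained with an antibody against cleaved PARP were counted against all DNA-stained nuclei to give the apoptosis fraction. Screening doses were chosen to leave most cells alive, and resting and induced cleaved-PARP levels differ strongly between cell lines.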

Key:
Test in all cases: cleaved PARP positive nuclei fraction relative to DMSO control; melanoma cells; higher = more apoptosis
Details in all cases: library dose: low library concentration; 72 h
501Mel = tested on: 501Mel
A101D = tested on: A101D
A2058 = tested on: A2058
A375 = tested on: A375
C32 = tested on: C32
CBRC013 = tested on: CBRC013 (line from a melanoma biopsy)
CBRC014 = tested on: CBRC014 (line from a melanoma biopsy)
CBRC016 = tested on: CBRC016 (line from a melanoma biopsy)
CBRC017 = tested on: CBRC017 (line from a melanoma biopsy)
CBRC034 = tested on: CBRC034 (line from a melanoma biopsy)
COLO792 = tested on: COLO792
COLO800 = tested on: COLO800
COLO829 = tested on: COLO829
G361 = tested on: G361
IPC-298 = tested on: IPC-298
IST-MEL1 = tested on: IST-MEL1
LB2518-MEL = tested on: LB2518-MEL
LOXIMVI = tested on: LOXIMVI

Row | Compound | cleaved PARP positive nuclei fraction (501Mel) [%] | cleaved PARP positive nuclei fraction (A101D) [%] | cleaved PARP positive nuclei fraction (A2058) [%] | cleaved PARP positive nuclei fraction (A375) [%] | cleaved PARP positive nuclei fraction (C32) [%] | cleaved PARP positive nuclei fraction (CBRC013) [%] | cleaved PARP positive nuclei fraction (CBRC014) [%] | cleaved PARP positive nuclei fraction (CBRC016) [%] | cleaved PARP positive nuclei fraction (CBRC017) [%] | cleaved PARP positive nuclei fraction (CBRC034) [%] | cleaved PARP positive nuclei fraction (COLO792) [%] | cleaved PARP positive nuclei fraction (COLO800) [%] | cleaved PARP positive nuclei fraction (COLO829) [%] | cleaved PARP positive nuclei fraction (G361) [%] | cleaved PARP positive nuclei fraction (IPC-298) [%] | cleaved PARP positive nuclei fraction (IST-MEL1) [%] | cleaved PARP positive nuclei fraction (LB2518-MEL) [%] | cleaved PARP positive nuclei fraction (LOXIMVI) [%]
1 | O=C(O)c1ccc(-c2c[nH]c3ncc(-c4ccccc4)cc23)cc1C1CCCC1 + O=c1cc(-c2cccc3c2Sc2ccccc2S3)oc(N2CCOCC2)c1 [KU55933] (first compound 0.16 µM, partner dose 1 µM) | 75 | 89.9 | 58.6 | 102 | 49.6 | 486 | 228 | 108 | 119 | 26.3 | 58.7 | 165 | 125 | 116 | 84.8 | 178 | 157 | 30.2
2 | Oc1cc(-c2nc(-c3ccccc3)[nH]c2-c2ccncc2)ccc1Cl + c1cc(-c2cnn3cc(-c4ccc(OCCN5CCCCC5)cc4)cnc23)ccn1 [Dorsomorphin] (first compound 0.2 µM, partner dose 0.4 µM) | 163 | 220 | 176 | 181 | 65 | 32.1 | 82.8 | 61.2 | 88 | 110 | 43.6 | 114 | 118 | 106 | 259 | 58.9 | 96.6 | 51.5
3 | COc1cc2ncnc(Nc3ccc(Oc4ccccc4)cc3)c2cc1OC + O=c1cc(-c2cccc3c2Sc2ccccc2S3)oc(N2CCOCC2)c1 [KU55933] (first compound 2 µM, partner dose 1 µM) | 78.8 | 45.5 | 82.4 | 116 | 25.8 | 24.1 | 82.7 | 62.6 | 93.7 | 78.3 | 107 | 111 | 69.5 | 44.2 | 62.3 | 172 | 38.9 | 130
4 | O=c1cc(-c2cccc3c2Sc2ccccc2S3)oc(N2CCOCC2)c1 + CC(C)CCN1c2nc(Nc3cc(F)c(O)c(F)c3)ncc2N(C)C(=O)C1C [BID1870] (first compound 1 µM, partner dose 0.2 µM) | 78.6 | 78.8 | 80.5 | 127 | 38.3 | 90.2 | 113 | 42.2 | 79.7 | 79.2 | 158 | 106 | 73.4 | 92.5 | 60.1 | 152 | 139 | 26.8
5 | NCC(=O)Nc1ccc(-n2nc(C(F)(F)F)cc2-c2ccc3c(ccc4ccccc43)c2)cc1 + c1cc(-c2cnn3cc(-c4ccc(OCCN5CCCCC5)cc4)cnc23)ccn1 [Dorsomorphin] (first compound 1 µM, partner dose 0.4 µM) | 367 | 72.7 | 56.1 | 4520 | 144 | 35.7 | 119 | 52.9 | 88.1 | 92.9 | 180 | 125 | 92 | 123 | 150 | 60.8 | 70.1 | 38.2
6 | CN(NC(=O)CC(=O)NN(C)C(=S)c1ccccc1)C(=S)c1ccccc1 + CCc1ccc(CCOc2ccc(CC3SC(=O)NC3=O)cc2)nc1 [pioglitazone] (first compound 0.006 µM, partner dose 2 µM) | 316 | 212 | 107 | 685 | 586 | 22.4 | 972 | 101 | 163 | 94.1 | 145 | 114 | 84.5 | 73.5 | 26.6 | 246 | 220 | 53.5
7 | CCc1ccc(CCOc2ccc(CC3SC(=O)NC3=O)cc2)nc1 (centres undefined) [pioglitazone] + COc1ccc(-c2ccc3c(N4CCOCC4)nc(N4C[C@@H](C)O[C@@H](C)C4)nc3n2)cc1CO [KU0063794] (first compound 2 µM, partner dose 0.02 µM) | 47.2 | 54.2 | 52.8 | 59.1 | 34.6 | 104 | 105 | 108 | 81 | 371 | 77.6 | 58.7 | 94.2 | 103 | 227 | 85 | 40.5 | 33.6
8 | CCN(CC)CCCCNc1ncc2cc(-c3cc(OC)cc(OC)c3)c(NC(=O)NC(C)(C)C)nc2n1 + COc1cc2ncnc(Nc3ccc(Oc4ccccc4)cc3)c2cc1OC [SrcI1] (first compound 0.1 µM, partner dose 2 µM) | 73.8 | 181 | 35.4 | 76.6 | 100 | 42 | 70.5 | 69.9 | 65.8 | 71.4 | 119 | 94.2 | 77.6 | 104 | 131 | 123 | 165 | 70.6
9 | Oc1cc(-c2nc(-c3ccccc3)[nH]c2-c2ccncc2)ccc1Cl + CCCCCCCCCCCC1=C(O)C(=O)C=C(O)C1=O [Embelin] (first compound 0.2 µM, partner dose 1.2 µM) | 153 | 55.9 | 57.8 | 84.5 | 34.1 | 106 | 89.2 | 134 | 76.6 | 46.2 | 77.4 | 143 | 108 | 46.9 | 202 | 61.6 | 165 | 65.4
10 | O=S(=O)(c1ccccc1)N(CC(F)(F)F)c1ccc(C(O)(C(F)(F)F)C(F)(F)F)cc1 + c1cc(-c2cnn3cc(-c4ccc(OCCN5CCCCC5)cc4)cnc23)ccn1 [Dorsomorphin] (first compound 1.4 µM, partner dose 0.4 µM) | 100 | 143 | 63.1 | 58.7 | 126 | 66.5 | 123 | 93.9 | 97.2 | 44.5 | 67.8 | 102 | 76 | 140 | 99.8 | 63.8 | 79.6 | 300
11 | CN(C)S(=O)(=O)c1ccc2c(c1)/C(=C/c1cc3c([nH]1)CCCC3)C(=O)N2 + O=c1cc(-c2cccc3c2Sc2ccccc2S3)oc(N2CCOCC2)c1 [KU55933] (first compound 0.4 µM, partner dose 1 µM) | 211 | 53.3 | 65.4 | 59.9 | 179 | 143 | 114 | 128 | 81.1 | 189 | 94.4 | 120 | 87.3 | 37.4 | 42.3 | 87.7 | 284 | 50.8
12 | CN(NC(=O)CC(=O)NN(C)C(=S)c1ccccc1)C(=S)c1ccccc1 + COc1cc(N2CCC(N3CCN(C)CC3)CC2)ccc1Nc1ncc(Cl)c(Nc2ccccc2S(=O)(=O)C(C)C)n1 [NVP-TAE684] (first compound 0.006 µM, partner dose 0.08 µM) | 263 | 156 | 71.9 | 2720 | 584 | 129 | 704 | 245 | 114 | 126 | 103 | 204 | 306 | 148 | 124 | 222 | 252 | 154
13 | NCC(=O)Nc1ccc(-n2nc(C(F)(F)F)cc2-c2ccc3c(ccc4ccccc43)c2)cc1 + N#Cc1c(O)c2c(-c3ccc(-c4ccccc4O)cc3)csc2[nH]c1=O [A769662] (first compound 1 µM, partner dose 2 µM) | 402 | 113 | 109 | 1300 | 168 | 102 | 98.3 | 94.8 | 96.2 | 68.7 | 158 | 172 | 114 | 173 | 46.3 | 32.9 | 83.3 | 290
14 | COc1ccc(-c2ccc3c(N4CCOCC4)nc(N4C[C@@H](C)O[C@@H](C)C4)nc3n2)cc1CO + CC(C)CCN1c2nc(Nc3cc(F)c(O)c(F)c3)ncc2N(C)C(=O)C1C [BID1870] (first compound 0.02 µM, partner dose 0.2 µM) | 74.9 | 270 | 61.4 | 328 | 120 | 96 | 110 | 62.1 | 79.3 | 85.9 | 102 | 108 | 101 | 200 | 89.9 | 106 | 349 | 1030
15 | CN(NC(=O)CC(=O)NN(C)C(=S)c1ccccc1)C(=S)c1ccccc1 + Oc1nc(-c2ccc(C(F)(F)F)cc2)nc2c1CSCC2 [XAV939] (first compound 0.006 µM, partner dose 2 µM) | 116 | 84.4 | 49.1 | 1120 | 92.9 | 94.2 | 456 | 122 | 106 | 62 | 122 | 311 | 189 | 62.1 | 65 | 141 | 278 | 48.9
16 | O=C(Nc1ccccc1)c1cc([N+](=O)[O-])ccc1Cl + c1cc(-c2cnn3cc(-c4ccc(OCCN5CCCCC5)cc4)cnc23)ccn1 [Dorsomorphin] (first compound 2 µM, partner dose 0.4 µM) | 59 | 172 | 161 | 37.3 | 106 | 98.3 | 115 | 89.4 | 92.7 | 84.9 | 119 | 133 | 140 | 124 | 133 | 114 | 83.3 | 73.7
17 | COc1ccc(COc2ccc(Cc3cnc(N)nc3N)cc2OC)cc1 + O=C1NC(=O)/C(=C/c2ccc(-c3ccc(F)cc3O)o2)S1 [AS252424] (first compound 1 µM, partner dose 1 µM) | 67.4 | 147 | 69.9 | 46.7 | 166 | 48.6 | 75.6 | 79.8 | 65 | 109 | 93.7 | 104 | 219 | 157 | 83.6 | 121 | 101 | 67.9
18 | Cc1cc([N+](=O)[O-])ccc1NS(=O)(=O)c1cc(Cl)ccc1Cl + Cn1cc(/C=C2\C(=O)Nc3cccnc32)c2ccccc21 [GW441756] (first compound 1 µM, partner dose 0.4 µM) | 35.4 | 224 | 139 | 260 | 71.4 | 55 | 183 | 1680 | 390 | 285 | 132 | 81 | 91.4 | 80.7 | 103 | 172 | 93.9 | 34.9

Quoted from above: entries 12 to 13
Row | Compound | cleaved PARP positive nuclei fraction (501Mel) [%] | cleaved PARP positive nuclei fraction (A101D) [%] | cleaved PARP positive nuclei fraction (A2058) [%] | cleaved PARP positive nuclei fraction (A375) [%] | cleaved PARP positive nuclei fraction (C32) [%] | cleaved PARP positive nuclei fraction (CBRC013) [%] | cleaved PARP positive nuclei fraction (CBRC014) [%] | cleaved PARP positive nuclei fraction (CBRC016) [%] | cleaved PARP positive nuclei fraction (CBRC017) [%] | cleaved PARP positive nuclei fraction (CBRC034) [%] | cleaved PARP positive nuclei fraction (COLO792) [%] | cleaved PARP positive nuclei fraction (COLO800) [%] | cleaved PARP positive nuclei fraction (COLO829) [%] | cleaved PARP positive nuclei fraction (G361) [%] | cleaved PARP positive nuclei fraction (IPC-298) [%] | cleaved PARP positive nuclei fraction (IST-MEL1) [%] | cleaved PARP positive nuclei fraction (LB2518-MEL) [%] | cleaved PARP positive nuclei fraction (LOXIMVI) [%]
12 | CN(NC(=O)CC(=O)NN(C)C(=S)c1ccccc1)C(=S)c1ccccc1 + COc1cc(N2CCC(N3CCN(C)CC3)CC2)ccc1Nc1ncc(Cl)c(Nc2ccccc2S(=O)(=O)C(C)C)n1 [NVP-TAE684] (first compound 0.006 µM, partner dose 0.08 µM) | 263 | 156 | 71.9 | 2720 | 584 | 129 | 704 | 245 | 114 | 126 | 103 | 204 | 306 | 148 | 124 | 222 | 252 | 154
13 | NCC(=O)Nc1ccc(-n2nc(C(F)(F)F)cc2-c2ccc3c(ccc4ccccc43)c2)cc1 + N#Cc1c(O)c2c(-c3ccc(-c4ccccc4O)cc3)csc2[nH]c1=O [A769662] (first compound 1 µM, partner dose 2 µM) | 402 | 113 | 109 | 1300 | 168 | 102 | 98.3 | 94.8 | 96.2 | 68.7 | 158 | 172 | 114 | 173 | 46.3 | 32.9 | 83.3 | 290
